Data as given in the supplement of paper PMC3334620.
In all, about 33,000 sequences were measured (“E-score (-0.5 to 0.5)”: median about -0.0034, highest 2% from about 0.25 on). This is one part of the list.

Target: T1, Yap3 (UniProt P38749)
T1 sequence: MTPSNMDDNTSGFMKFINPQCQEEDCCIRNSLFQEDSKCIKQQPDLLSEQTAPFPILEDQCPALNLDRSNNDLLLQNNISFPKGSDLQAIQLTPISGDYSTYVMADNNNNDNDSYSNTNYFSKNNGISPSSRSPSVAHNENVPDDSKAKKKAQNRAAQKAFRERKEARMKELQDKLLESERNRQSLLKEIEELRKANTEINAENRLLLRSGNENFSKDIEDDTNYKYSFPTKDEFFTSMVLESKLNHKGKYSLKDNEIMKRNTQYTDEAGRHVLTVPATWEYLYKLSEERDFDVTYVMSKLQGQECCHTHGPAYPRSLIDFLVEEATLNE
Assay: PBM E-score (8-mer binding enrichment) (E-score (-0.5 to 0.5)); higher = stronger / more preferred TF binding
Details: protein concentration: 100 nM; construct: GST-full length
In short: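 E-scores (a modified Wilcoxon-Mann-Whitney statistic) were assigned by the Universal PBM Analysis Suite to every ungapped eight-base word pooled with its reverse complement. The input came from universal all-10-mer Agilent arrays made double-stranded by primer extension and probed with GST-tagged yeast transcription factors at about 100-200 nM. Fluorescent anti-GST detected bound protein, and masliner normalised the scans.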

Point of comparison: CAGATTTA, “PBM E-score” value 0.14. Against it:
- AAAGATAC — lower, 0.0753
- AGAGGGGC — lower, -0.232
- GCTGTAAC — lower, 0.0596
- AATCACCC — lower, 0.118
- ACGGGACA — lower, -0.124
- AAGGCAAC — lower, 0.0537
- CTATTCAG — lower, 0.0134
- AAGGTCGC — lower, -0.0767
- ACAGATCT — lower, 0.0371
- ACCGCCTC — lower, -0.253
- CAGTAATG — lower, 0.0685
- AGAACCGC — higher, 0.165
- AGACACTC — lower, -0.0476
- TCACTAGA — lower, 0.0909
- CTTAGTCC — lower, -0.0515
- CGTGTGGA — lower, -0.118
- TAGCCGAA — lower, -0.0349
- TACCGCTA — lower, 0.123
- ACTTCAAC — lower, -0.0136
- GAGACACA — lower, 0.0836
- AAAAACTA — higher, 0.256
- ATACTCTA — lower, 0.0927
- AACCCGTC — lower, -0.241
- GCAGTAAC — lower, -0.126
- GTCGCCGA — lower, -0.084
- TAAGGGAA — lower, 0.0811
- CATCCGGC — lower, -0.0421
- TTAAAGAA — higher, 0.19
- ATTAGATG — higher, 0.261
- CATTCAAC — lower, -0.065
- CAAATAAG — lower, -0.0581
- AGTAACTA — lower, 0.115
- CGTTATAC — lower, -0.0926
- CCTCGGCC — lower, -0.107
- ACACCCAC — lower, -0.069
- AGTCAACA — lower, 0.124
- CAGGGCAA — lower, -0.0365
- ATATATCG — higher, 0.203
- AAGTCGTA — lower, -0.04
- CAGACCTC — lower, -0.181
- ACTCCCTG — lower, 0.0264
- GGGGGCAA — lower, -0.0733
- CCGAGTAC — lower, -0.0586
- CCTATAAC — lower, -0.0793
- GTACAATA — lower, 0.104
- TACGGCGA — lower, 0.0467
- AGAGCATC — lower, -0.0212
- GGCGGCGA — lower, -0.173
- CAAAATAG — lower, 0.017
- AGCGACAG — lower, 0.0519
- AGCATGGA — lower, -0.168
- TGAATACA — higher, 0.15
- CATCAAGA — lower, 0.0103
- AACGTAAC — higher, 0.201
- AAAAGTCT — lower, 0.0573
- AGGGCACC — lower, -0.274
- CCCAAGAG — lower, -0.206
- AGAAGCCG — lower, -0.114
- AGCTCCTG — lower, -0.232
- AATAAAGG — lower, -0.0245
- TGAGTTAA — lower, 0.0865
- CGCAGAGA — lower, -0.0352
- GGTGAAAA — higher, 0.175
- AATAAATA — higher, 0.315
- AGCGACTC — lower, -0.0834
- GTGGTGTA — lower, -0.0507
- GCTAGTCA — lower, -0.237
- CTAACAGA — higher, 0.174
- GGCGCTCA — lower, -0.079
- CACCCGAG — lower, -0.0559
- ACTTGGCT — lower, -0.116
- AGCTATTC — lower, -0.135
- ACAACAAT — higher, 0.183
- ATGCAGTC — lower, -0.172
- GATCTCCC — lower, -0.194
- GAATATGA — higher, 0.168
- AGGGTCTA — lower, -0.135
- GCAGGCCA — lower, -0.251
- ATGCACGG — lower, -0.0661
- CCCACGGC — lower, -0.277
- GAAAGAGC — lower, -0.0302
- CCCAAACG — lower, -0.154
- CGAAAGAC — lower, -0.0176
- GGTGTAAC — lower, 0.0027
- ACGGCGCA — lower, 0.0681
- ATCCCACA — lower, -0.00065
- ATTCAGCC — lower, -0.0639
- ACGGGGTC — lower, -0.272
- CTTTTACA — higher, 0.247
- ACCGTTGG — lower, -0.161
- CATTAGTC — lower, 0.0988
- ACATGAGG — lower, -0.109
- AAGGGAGG — lower, -0.283
- CGTCGACG — lower, -0.159
- GTAGTTGA — higher, 0.192
- AAGGCGGA — lower, -0.0735
- ACAACCCA — lower, 0.0442
- AGTGCATC — lower, -0.0272
- CGCACCCA — lower, -0.0572
- CAGCACGC — lower, -0.0604
- ATGATGAG — lower, 0.12
- ACAACGGC — lower, -0.074
- GTCTACTA — lower, 0.0762
- AGTGCACC — lower, 0.103
- ACACACAG — lower, -0.0238
- CATGCGGA — lower, -0.201
- CCAGGATA — lower, 0.0674
- ACGTTATA — higher, 0.221
- CGCTTCAG — lower, -0.0755
- AACCTGAG — lower, -0.12
- CTCAACGC — lower, -0.194
- CGAGGTAG — lower, -0.295
- AAATGACG — higher, 0.195
- CATCTTAA — lower, 0.00845
- GCACCTCA — lower, 0.0919
- CGCTAATC — lower, -0.0908
- CCGTTAGC — lower, 0.00514
- CAGATTCC — lower, -0.184
- GGAATTTA — higher, 0.173
- AACCTCCC — lower, -0.233
- CGGTGATA — lower, 0.129
- CTATCGCC — lower, -0.207
- AAGCAACT — higher, 0.172
- AAAAAACG — higher, 0.315
- AGGCGTTG — lower, -0.124
- ACACCTCC — lower, -0.0206
- GTGGATCA — lower, 0.0706
- ATACAATA — higher, 0.242
- ACCCTCGC — lower, -0.0339
- CATGAGAG — lower, 0.108
- GCGGATGA — lower, 0.0488
- ACCAATCT — higher, 0.167
- CTGATGAC — lower, 0.0253
- CTTGTATC — lower, 0.0582
- GCCGGACC — lower, -0.404
- AGGCAGCG — lower, -0.137
- ATCAGAAG — lower, 0.131
- CACCTCAC — lower, 0.064
- GTAGGGCA — lower, 0.0216
- ATCCCTTG — lower, -0.0605
- GAGATACC — higher, 0.159
- CAAGGAAG — lower, -0.0688
- GATGTCCA — lower, -0.0393
- TGAGTGAA — lower, 0.101
- AAATCGTG — higher, 0.184
- CTGACCTC — lower, -0.151
- AGTAGTTG — higher, 0.18
- TACCGCGA — lower, 0.112
- GTGAAAGA — lower, 0.114
- GAACCAGC — lower, 0.0448
- ATAGTGTG — higher, 0.146
- GCACCTGC — lower, -0.0705
- CTAACTTA — higher, 0.167
- ACCTAAAT — lower, 0.0556
- CACGGATC — lower, -0.0166
- GGGTCTAC — lower, -0.218
- GGATAGCA — lower, 0.0958
- CTTCCTAC — lower, -0.167
- CTGTTAGA — lower, -0.0952
- GGTCAGGA — lower, -0.108
- ATCTCAGC — lower, 0.0754
- CGCATTCC — lower, -0.188
- AAAGCCAT — lower, 0.0885
- AAATGGTC — lower, 0.013
- TACCGACA — lower, 0.0241
- TACGGAAA — higher, 0.206
- CGTGCCCA — lower, -0.143
- CACAGGGC — lower, -0.281
- CACGGCAA — lower, 0.0797
- AACATCAG — higher, 0.142
- ACTAAGCG — higher, 0.164
